This note sets out measurements from US20230340114A1.

Sequences of proteins named here, by UniProt entry; tags and fusion partners are left off. Residues count along the entry.
UniProt Q8NHJ6, residues 22-448: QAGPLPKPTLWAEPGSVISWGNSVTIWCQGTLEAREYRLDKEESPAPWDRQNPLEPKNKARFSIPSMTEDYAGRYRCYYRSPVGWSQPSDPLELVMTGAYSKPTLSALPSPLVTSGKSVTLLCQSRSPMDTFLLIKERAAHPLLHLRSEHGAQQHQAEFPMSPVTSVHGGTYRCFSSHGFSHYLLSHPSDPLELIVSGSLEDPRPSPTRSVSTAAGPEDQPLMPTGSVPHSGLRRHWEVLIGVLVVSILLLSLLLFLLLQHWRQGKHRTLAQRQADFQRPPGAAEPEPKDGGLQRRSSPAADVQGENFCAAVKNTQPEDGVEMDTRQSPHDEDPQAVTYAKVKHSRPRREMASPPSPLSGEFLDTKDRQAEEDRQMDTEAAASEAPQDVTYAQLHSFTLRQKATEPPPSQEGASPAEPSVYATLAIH

Assay [1] has as its target human LILRB4 expressed on cells (human) (UniProt Q8NHJ6). Kind of assay: flow cytometry on human primary monocytes, THP-1 GFP cells and CHO RB4 cells; axis log(conc) without unit.
Assay [2] has the same target. The experiment in a line: flow cytometry on human primary monocytes and THP-1 cells (FIG. 32). A general note: In flow cytometry, cells or beads pass a laser one at a time.

Results are given in words; binding and its absence hold for the method and conditions named. Some results given as binding are weak or reduced against the parent protein; the word gives no strength.

B1: H7K3m5 scFv, VhVl configuration (scFv)
scFv: EVQLVESGGGLVQPGGSLRLSCAASGFSLSSSYWISWVRQAPGKGLEWIGSIDSGSVGITYYATWVKGRFTISRDNSKNTLYLQMNSLRAEDTAVYYCARHGDNWALDLWGQGTLVTVSSGGGGSGGGGSGGGGSDIQMTQSPSTLSASVGDRVTITCRASQSISSWLAWYQQKPGKAPKLLIYKASTLASGVPSRFSGSGSGTEFTLTISSLQPDDFATYYCQHGYIRGDLDNVFGGGTKVEIK
In the case of B1, the binding entry in assay [1] and in assay [2] was “binds” throughout.
